{
  "source": "the supplement of paper PMC8326762",
  "about": "“A Small Molecule Inhibitor of Pex3–Pex19 Interaction Disrupts Glycosome Biogenesis and Causes Lethality in Trypanosoma brucei” (Frontiers in Cell and Developmental Biology, 2021)",
  "note": "Structures can show the parent of a compound that is named as a salt. The list shows a part of the results. This is a noisy data set.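 Yeast growth was read as optical density at 600 nm. The two-hybrid strains grew without histidine, so growth needed the Pex3–Pex19 binding; a compound counted as trypanosome-selective if it cut growth of the trypanosome-pair strain by more than 65% and the human-pair strain by less than 65%.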",
  "data": [
    {"tested_on": "human PEX3-PEX19 interaction (yeast two-hybrid)", "test": "growth inhibition of yeast two-hybrid strain reporting HsPex3-HsPex19 interaction, relative to DMSO; higher = stronger inhibition of human Pex3-Pex19 interaction / growth", "conditions": "100 µM; 24 h; 3-aminotriazole 10 mM", "units": {"growth inhibition": "%"}, "values": [
      {"smiles": "O=[N+]([O-])c1ccc(-c2nc(-c3ccc(F)cc3)c(-c3ccncc3)[nH]2)cc1", "growth inhibition": -11},
      {"smiles": "CC[C@]1(O)C[C@@H]2CN(CCc3c([nH]c4ccccc34)[C@@](C(=O)OC)(c3cc4c(cc3OC)N(C)[C@H]3[C@@](O)(C(=O)OC)[C@H](OC(C)=O)[C@]5(CC)C=CCN6CC[C@]43[C@@H]65)C2)C1", "note": "[Vinblastine sulfate salt]", "growth inhibition": 52.7},
      {"smiles": "NS(=O)(=O)c1cccc2c1c([N+](=O)[O-])cc1nc(O)c(O)nc12", "note": "[NBQX disodium]", "growth inhibition": 41.5},
      {"smiles": "O=C(c1cc(O)c(O)c([N+](=O)[O-])c1)c1ccccc1F", "growth inhibition": 56.8},
      {"smiles": "CSC(=N)NCCC[C@H](N)C(=O)O", "note": "[S-Methyl-L-thiocitrulline acetate]", "growth inhibition": 46.8},
      {"smiles": "Nc1ccn([C@@H]2O[C@H](CO)[C@@H](O)[C@@H]2O)c(=O)n1", "note": "[Cytosine-1-beta-D-arabinofuranoside hydrochloride]", "growth inhibition": -0.874},
      {"smiles": "C[C@@H](c1ncncc1F)[C@](O)(Cn1cncn1)c1ccc(F)cc1F", "note": "[Voriconazole]", "growth inhibition": 79.7},
      {"smiles": "CC(C)NCC(O)c1ccc(O)c(O)c1", "note": "(racemic) [(±)-Isoproterenol hydrochloride]", "growth inhibition": 27.5},
      {"smiles": "NC(=O)c1ncn([C@@H]2O[C@H](CO)[C@@H](O)[C@H]2O)n1", "note": "[Ribavirin]", "growth inhibition": 47.3},
      {"smiles": "CCc1ccc(/C=C2/SC(=S)NC2=O)cc1", "growth inhibition": 7.94},
      {"smiles": "Cc1c(O)cccc1C(=O)N[C@@H](CSc1ccccc1)[C@H](O)CN1C[C@H]2CCCC[C@H]2C[C@H]1C(=O)NC(C)(C)C", "note": "[Nelfinavir mesylate hydrate]", "growth inhibition": 5.96},
      {"smiles": "Cc1cc(N)c2ccccc2[n+]1CCCCCCCCCC[n+]1c(C)cc(N)c2ccccc21", "note": "[Dequalinium chloride hydrate]", "growth inhibition": 84.8},
      {"smiles": "C[C@]12C=CC(=O)C=C1CC[C@H]1[C@@H]3C[C@@H](O)[C@](O)(C(=O)CO)[C@@]3(C)C[C@H](O)[C@@]12F", "note": "[Triamcinolone]", "growth inhibition": 53.9},
      {"smiles": "N[C@H]1CONC1=O", "note": "[L-Cycloserine]", "growth inhibition": 38.2}
    ]},
    {"tested_on": "T. brucei Pex3-Pex19 interaction (yeast two-hybrid)", "test": "growth inhibition of yeast two-hybrid strain reporting TbPex3-TbPex19 interaction, relative to DMSO; higher = stronger inhibition of T. brucei Pex3-Pex19 interaction / growth", "conditions": "100 µM; 24 h", "units": {"growth inhibition": "%"}, "values": [
      {"smiles": "CCCCC1(C2CCCC2)Cc2cc(OCC(=O)O)c(Cl)c(Cl)c2C1=O", "note": "(stereo in doubt) [R(+)-Butylindazone]", "growth inhibition": 61.6},
      {"smiles": "O=C(O)Cn1c(C(=O)Nc2nc(-c3ccccc3Cl)cs2)cc2ccccc21", "growth inhibition": 60.8},
      {"smiles": "NC(Cc1cccc(-c2ccccc2CP(=O)(O)O)c1)C(=O)O", "note": "(stereo not drawn) [Phenylbenzene-omega-phosphono-alpha-amino acid]", "growth inhibition": 59},
      {"smiles": "COc1cc(N)c(Cl)cc1C(=O)OCCN1CCCCC1", "growth inhibition": 55.5},
      {"smiles": "COc1ccc2cc([C@H](C)C(=O)O)ccc2c1", "note": "[(-)-Naproxen sodium]", "growth inhibition": 21.2},
      {"smiles": "O=c1c(O)c(-c2ccc(O)cc2O)oc2cc(O)cc(O)c12", "note": "[Morin]", "growth inhibition": 63.2},
      {"smiles": "CCCCc1ncc(/C=C(\\Cc2cccs2)C(=O)O)n1Cc1ccc(C(=O)O)cc1", "note": "[Eprosartan mesylate]", "growth inhibition": 59},
      {"smiles": "CN(C)C(=O)C(CCN1CCC(O)(c2ccc(Cl)cc2)CC1)(c1ccccc1)c1ccccc1", "note": "[Loperamide hydrochloride]", "growth inhibition": 66.9},
      {"smiles": "COc1ccccc1N1CCN(CCN(C(=O)C2CCCCC2)c2ccccn2)CC1", "growth inhibition": 69.2},
      {"smiles": "O=C(O)c1cccnc1Nc1cccc(C(F)(F)F)c1", "note": "[Niflumic acid]", "growth inhibition": 55.3},
      {"smiles": "CNC(=N)NCCC[C@H](N)C(=O)O", "note": "[NG-Monomethyl-L-arginine acetate]", "growth inhibition": 66.4},
      {"smiles": "Cc1nc2c(OCc3ccccc3)cccn2c1CC#N", "growth inhibition": 67.3},
      {"smiles": "NC(N)=NCc1cccc(I)c1", "note": "[m-Iodobenzylguanidine hemisulfate]", "growth inhibition": 32.9},
      {"smiles": "Cn1cnc([N+](=O)[O-])c1Sc1ncnc2[nH]cnc12", "note": "[Azathioprine]", "growth inhibition": 61.4},
      {"smiles": "Oc1ccc(/C=C/c2cc(O)cc(O)c2)cc1", "note": "[Resveratrol]", "growth inhibition": 60.1},
      {"smiles": "COC(=O)C1=CO[C@@H](O)[C@@H]2C(CO)=CC[C@H]12", "note": "[Genipin]", "growth inhibition": 58},
      {"smiles": "CN1CCc2ccccc2Cc2[nH]c3ccccc3c2CC1", "growth inhibition": 70.1},
      {"smiles": "Clc1ccccc1C(c1ccccc1)(c1ccccc1)n1ccnc1", "note": "[Clotrimazole]", "growth inhibition": 57.6},
      {"smiles": "CC(=O)N1CCN(c2ccc(OCC3COC(Cn4ccnc4)(c4ccc(Cl)cc4Cl)O3)cc2)CC1", "note": "(configuration not stated) [Ketoconazole]", "growth inhibition": 80.8},
      {"smiles": "CCN1CCCC1CNC(=O)c1cc(S(N)(=O)=O)ccc1OC", "note": "(single isomer, unassigned; (-)) [(-)-Sulpiride]", "growth inhibition": 71.8},
      {"smiles": "O=C(Nc1ccncc1)c1cc([N+](=O)[O-])ccc1Cl", "growth inhibition": 67.1},
      {"smiles": "CCCCC#Cc1nc(NC)c2ncn([C@@H]3O[C@H](CO)[C@@H](O)[C@H]3O)c2n1", "growth inhibition": 66.1},
      {"smiles": "Cc1nnc(C(C)C)n1C1C[C@H]2CC[C@@H](C1)N2CC[C@H](NC(=O)C1CCC(F)(F)CC1)c1ccccc1", "note": "(stereo in doubt) [Maraviroc]", "growth inhibition": 61.3},
      {"smiles": "O=C(Nc1ccc([N+](=O)[O-])cc1Cl)c1cc(Cl)ccc1O", "note": "[Niclosamide]", "growth inhibition": 28.4},
      {"smiles": "O=[N+]([O-])c1ccc(-c2nc(-c3ccc(F)cc3)c(-c3ccncc3)[nH]2)cc1", "growth inhibition": 2.34},
      {"smiles": "CC[C@]1(O)C[C@@H]2CN(CCc3c([nH]c4ccccc34)[C@@](C(=O)OC)(c3cc4c(cc3OC)N(C)[C@H]3[C@@](O)(C(=O)OC)[C@H](OC(C)=O)[C@]5(CC)C=CCN6CC[C@]43[C@@H]65)C2)C1", "note": "[Vinblastine sulfate salt]", "growth inhibition": 63.8},
      {"smiles": "NS(=O)(=O)c1cccc2c1c([N+](=O)[O-])cc1nc(O)c(O)nc12", "note": "[NBQX disodium]", "growth inhibition": 63.6},
      {"smiles": "O=C(c1cc(O)c(O)c([N+](=O)[O-])c1)c1ccccc1F", "growth inhibition": 74.8},
      {"smiles": "CSC(=N)NCCC[C@H](N)C(=O)O", "note": "[S-Methyl-L-thiocitrulline acetate]", "growth inhibition": 71.9},
      {"smiles": "Nc1ccn([C@@H]2O[C@H](CO)[C@@H](O)[C@@H]2O)c(=O)n1", "note": "[Cytosine-1-beta-D-arabinofuranoside hydrochloride]", "growth inhibition": 25.1},
      {"smiles": "C[C@@H](c1ncncc1F)[C@](O)(Cn1cncn1)c1ccc(F)cc1F", "note": "[Voriconazole]", "growth inhibition": 78.3},
      {"smiles": "CC(C)NCC(O)c1ccc(O)c(O)c1", "note": "(racemic) [(±)-Isoproterenol hydrochloride]", "growth inhibition": 59},
      {"smiles": "NC(=O)c1ncn([C@@H]2O[C@H](CO)[C@@H](O)[C@H]2O)n1", "note": "[Ribavirin]", "growth inhibition": 65.6},
      {"smiles": "CCc1ccc(/C=C2/SC(=S)NC2=O)cc1", "growth inhibition": 21.3},
      {"smiles": "Cc1c(O)cccc1C(=O)N[C@@H](CSc1ccccc1)[C@H](O)CN1C[C@H]2CCCC[C@H]2C[C@H]1C(=O)NC(C)(C)C", "note": "[Nelfinavir mesylate hydrate]", "growth inhibition": 21.9},
      {"smiles": "Cc1cc(N)c2ccccc2[n+]1CCCCCCCCCC[n+]1c(C)cc(N)c2ccccc21", "note": "[Dequalinium chloride hydrate]", "growth inhibition": 79.1},
      {"smiles": "C[C@]12C=CC(=O)C=C1CC[C@H]1[C@@H]3C[C@@H](O)[C@](O)(C(=O)CO)[C@@]3(C)C[C@H](O)[C@@]12F", "note": "[Triamcinolone]", "growth inhibition": 62.1},
      {"smiles": "N[C@H]1CONC1=O", "note": "[L-Cycloserine]", "growth inhibition": 60.8}
    ]}
  ]
}
